No constants are given. Whether binding was seen depends on the method and setting. In cells and extracts the contact can be indirect. Some results given as binding are weak or reduced against the parent protein; the word gives no strength. For some of these results: Where a sequence is shown, tags or fusion partners need not be part of it.
Legend:
[1] = target: T1, STOX2A, 3xFLAG-tagged (STOX2-FLAG), overexpressed in HEK293T cells (UniProt Q9P2F5); experiment: co-IP; 293T cells transfected with STOX2 and SMAD2; lysis in TNTE buffer (50 mM Tris/HCl pH 7.6, 150 mM NaCl, 0.5% TritonX-100, 1 mM EDTA); STOX2-FLAG immunoprecipitated with FLAG antibody; immunoblot
T1 sequence: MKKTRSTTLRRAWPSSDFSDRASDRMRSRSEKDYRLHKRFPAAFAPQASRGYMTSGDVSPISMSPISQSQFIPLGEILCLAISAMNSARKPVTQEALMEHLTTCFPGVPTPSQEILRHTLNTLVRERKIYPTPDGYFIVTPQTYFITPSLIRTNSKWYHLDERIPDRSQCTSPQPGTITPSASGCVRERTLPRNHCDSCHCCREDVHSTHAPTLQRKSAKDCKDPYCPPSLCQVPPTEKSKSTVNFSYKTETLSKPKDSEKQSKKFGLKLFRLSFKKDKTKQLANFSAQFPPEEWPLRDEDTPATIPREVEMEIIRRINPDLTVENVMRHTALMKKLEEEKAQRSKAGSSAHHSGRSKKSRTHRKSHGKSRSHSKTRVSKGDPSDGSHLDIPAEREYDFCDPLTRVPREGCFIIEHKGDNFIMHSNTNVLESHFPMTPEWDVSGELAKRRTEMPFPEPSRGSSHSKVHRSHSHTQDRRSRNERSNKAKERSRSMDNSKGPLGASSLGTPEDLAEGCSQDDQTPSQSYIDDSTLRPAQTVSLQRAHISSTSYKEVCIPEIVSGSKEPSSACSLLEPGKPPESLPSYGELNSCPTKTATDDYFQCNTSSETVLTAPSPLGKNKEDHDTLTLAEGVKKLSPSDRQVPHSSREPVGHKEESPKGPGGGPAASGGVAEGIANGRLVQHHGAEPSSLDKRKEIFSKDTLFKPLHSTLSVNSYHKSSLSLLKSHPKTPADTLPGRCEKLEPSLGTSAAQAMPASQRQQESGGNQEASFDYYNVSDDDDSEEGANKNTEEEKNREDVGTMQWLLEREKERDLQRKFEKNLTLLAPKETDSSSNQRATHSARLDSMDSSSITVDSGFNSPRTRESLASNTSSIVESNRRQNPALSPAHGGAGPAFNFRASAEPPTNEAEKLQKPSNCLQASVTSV

By UniProt entry, the sequences of proteins in these tests, tags left out.
UniProt Q15796: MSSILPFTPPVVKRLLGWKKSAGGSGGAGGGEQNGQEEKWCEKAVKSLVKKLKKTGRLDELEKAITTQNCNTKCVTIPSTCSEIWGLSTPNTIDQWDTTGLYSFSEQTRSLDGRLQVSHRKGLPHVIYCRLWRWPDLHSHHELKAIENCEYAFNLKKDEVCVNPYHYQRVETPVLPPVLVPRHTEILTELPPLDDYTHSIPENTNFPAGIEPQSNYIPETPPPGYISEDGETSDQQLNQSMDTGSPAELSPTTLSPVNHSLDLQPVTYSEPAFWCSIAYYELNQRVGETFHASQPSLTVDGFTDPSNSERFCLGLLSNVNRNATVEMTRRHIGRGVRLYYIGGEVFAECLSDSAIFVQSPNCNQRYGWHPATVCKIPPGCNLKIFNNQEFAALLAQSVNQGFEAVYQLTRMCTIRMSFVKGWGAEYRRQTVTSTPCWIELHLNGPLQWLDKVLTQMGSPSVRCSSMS

[2] = target: T2, STOX2, endogenous in human embryonic stem cells (human (endogenous in hESCs)) (UniProt Q9P2F5); experiment: co-IP; endogenous proteins; 2 mg of total protein from hESCs treated for 4 h with DMSO (solvent control), incubated with 2 μg of STOX2 antibody (IgG as control); immunoblot for STOX2 and SMAD2
T2 sequence: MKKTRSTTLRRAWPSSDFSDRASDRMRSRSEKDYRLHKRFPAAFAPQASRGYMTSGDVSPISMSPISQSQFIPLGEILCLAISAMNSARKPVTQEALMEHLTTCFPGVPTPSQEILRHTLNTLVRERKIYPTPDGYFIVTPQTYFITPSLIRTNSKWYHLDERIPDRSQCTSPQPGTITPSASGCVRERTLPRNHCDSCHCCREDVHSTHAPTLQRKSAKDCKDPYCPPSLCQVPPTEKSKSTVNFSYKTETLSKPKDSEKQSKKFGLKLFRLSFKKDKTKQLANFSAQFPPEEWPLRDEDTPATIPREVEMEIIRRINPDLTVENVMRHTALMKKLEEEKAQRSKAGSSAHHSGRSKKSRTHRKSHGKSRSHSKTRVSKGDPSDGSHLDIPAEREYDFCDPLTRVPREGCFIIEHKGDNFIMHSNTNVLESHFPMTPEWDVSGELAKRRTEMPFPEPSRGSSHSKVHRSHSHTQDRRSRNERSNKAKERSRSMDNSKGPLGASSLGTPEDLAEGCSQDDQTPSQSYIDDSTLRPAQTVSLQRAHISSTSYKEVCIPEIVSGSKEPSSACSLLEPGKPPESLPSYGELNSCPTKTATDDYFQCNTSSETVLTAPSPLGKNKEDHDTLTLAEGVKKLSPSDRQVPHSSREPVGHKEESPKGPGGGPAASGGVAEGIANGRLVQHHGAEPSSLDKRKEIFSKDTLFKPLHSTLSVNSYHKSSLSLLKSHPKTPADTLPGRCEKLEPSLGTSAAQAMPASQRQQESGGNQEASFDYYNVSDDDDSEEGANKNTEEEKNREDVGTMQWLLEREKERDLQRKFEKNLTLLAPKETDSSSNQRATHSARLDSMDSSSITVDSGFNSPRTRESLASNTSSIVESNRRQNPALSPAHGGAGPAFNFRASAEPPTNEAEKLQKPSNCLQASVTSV

[3] = target: T2, STOX2, endogenous in human embryonic stem cells (human (endogenous in hESCs)); experiment: condition: only hESCs treated for 4 h with SB (inhibition of TGF-β signaling); co-IP; endogenous proteins; 2 mg of total protein from hESCs treated for 4 h with SB (inhibition of TGF-β signaling), incubated with 2 μg of STOX2 antibody (IgG as control); immunoblot for STOX2 and SMAD2
[4] = target: SMAD2, HA-tagged (SMAD2-HA), overexpressed in HEK293T cells (UniProt Q15796); experiment: co-IP; 293T cells transfected with STOX2 and SMAD2; lysis in TNTE buffer; SMAD2-HA immunoprecipitated with HA antibody; immunoblot

Question: Which binding [1] does the source give for “SMAD2, HA-tagged (SMAD2-HA), overexpressed in HEK293T cells (from UniProt Q15796 1-467)” here?
Answer: The binding was “binds”.

Question: With “SMAD2, endogenous in human embryonic stem cells (from UniProt Q15796 1-467)” as the molecule, how does the binding [2] read?
Answer: Its binding is “binds”.

Question: What about the binding [3] of the same molecule?
Answer: The binding was “no binding”.

B1: STOX2A, 3xFLAG-tagged (STOX2-FLAG), overexpressed in HEK293T cells (protein, UniProt Q9P2F5 1-926)
chain: MKKTRSTTLRRAWPSSDFSDRASDRMRSRSEKDYRLHKRFPAAFAPQASRGYMTSGDVSPISMSPISQSQFIPLGEILCLAISAMNSARKPVTQEALMEHLTTCFPGVPTPSQEILRHTLNTLVRERKIYPTPDGYFIVTPQTYFITPSLIRTNSKWYHLDERIPDRSQCTSPQPGTITPSASGCVRERTLPRNHCDSCHCCREDVHSTHAPTLQRKSAKDCKDPYCPPSLCQVPPTEKSKSTVNFSYKTETLSKPKDSEKQSKKFGLKLFRLSFKKDKTKQLANFSAQFPPEEWPLRDEDTPATIPREVEMEIIRRINPDLTVENVMRHTALMKKLEEEKAQRSKAGSSAHHSGRSKKSRTHRKSHGKSRSHSKTRVSKGDPSDGSHLDIPAEREYDFCDPLTRVPREGCFIIEHKGDNFIMHSNTNVLESHFPMTPEWDVSGELAKRRTEMPFPEPSRGSSHSKVHRSHSHTQDRRSRNERSNKAKERSRSMDNSKGPLGASSLGTPEDLAEGCSQDDQTPSQSYIDDSTLRPAQTVSLQRAHISSTSYKEVCIPEIVSGSKEPSSACSLLEPGKPPESLPSYGELNSCPTKTATDDYFQCNTSSETVLTAPSPLGKNKEDHDTLTLAEGVKKLSPSDRQVPHSSREPVGHKEESPKGPGGGPAASGGVAEGIANGRLVQHHGAEPSSLDKRKEIFSKDTLFKPLHSTLSVNSYHKSSLSLLKSHPKTPADTLPGRCEKLEPSLGTSAAQAMPASQRQQESGGNQEASFDYYNVSDDDDSEEGANKNTEEEKNREDVGTMQWLLEREKERDLQRKFEKNLTLLAPKETDSSSNQRATHSARLDSMDSSSITVDSGFNSPRTRESLASNTSSIVESNRRQNPALSPAHGGAGPAFNFRASAEPPTNEAEKLQKPSNCLQASVTSV
Question: How did the binding [4] turn out when B1 was run?
Answer: Its binding is “binds”.

Source: PMC7765495
